{"source": "PubChem BioAssay AID493014", "about": "(National Center for Advancing Translational Sciences (NCATS), 2011)", "note": "In all, about 340,000 compounds went through this assay and about 170 (0.05%) were called active. The shares of active, inactive and inconclusive entries below differ from those in the screen. The call rests on the fitted dose curve; in most records, active means well fitted inhibition curve with a large enough effect in the signal ratio, with a control signal flat (not every such curve was filed as active); inconclusive means small, poorly fitted or top-dose-only effect, or effect the other way, or a change in a side signal; inactive means flat fitted curve, though single readings scatter; the % refers to the signal ratio. Where the call is inconclusive, the potency comes from a doubtful curve fit. Potency means the concentration at half of the fitted maximal effect."}
{"assay": "qHTS Assay to Find Inhibitors of Chronic Active B-Cell Receptor Signaling;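 on activity change, negative = inhibition: plate controls were basal doxycycline-induced cells for no effect and cells given 10 µM MG132 for full effect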", "conditions": "ABC-DLBCL IkBa-CBG/CBR reporter, luminescence ratio (green luciferase fused to IkBa over red control in TMD8 lymphoma cells), 4 h; activity change, negative = inhibition: at 46.1 µM (top of the series)", "procedure,_shortened": "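Concentration-response series (up to 46 uM) were applied to TMD8 dual-reporter cells for 4 h at 37C with doxycycline. Green/red ratio, after filter-overlap correction, defined %Activity; red signal alone was normalised to basal cells and zero luminescence.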"}
{"smiles": "Cc1ccc2c(c1)C(N1CCCC1=O)CC(c1ccco1)N2", "note": "(stereo not drawn)", "activity change, negative = inhibition": "inconclusive: 0.01%"}
{"smiles": "O=C(NCc1ccncc1)C(=O)N/N=C/c1cccnc1", "Potency": "inconclusive: 35.5 µM [falling, single point]"}
{"smiles": "COc1ccccc1N1CCN(CCCNC(=O)Nc2ccccc2C)CC1", "activity change, negative = inhibition": "inconclusive: 7.76%"}
{"smiles": "COc1ccc(C)cc1NC(=O)C1COc2ccccc2O1", "note": "(stereo not drawn)", "activity change, negative = inhibition": "inconclusive: 9.7%"}
{"smiles": "CC1CCCCC1NC(=O)C1CCN(S(=O)(=O)c2ccc(-n3cnnn3)cc2)CC1", "note": "(stereo not drawn)", "Potency": "inconclusive: 1.84 µM [rising, full curve, poor fit]"}
{"smiles": "Nc1c(Cl)cc(Cl)cc1C(=O)OCC(=O)NC1CC1", "Potency": "inconclusive: 25.9 µM [falling, partial curve, poor fit]"}
{"smiles": "CCOc1cc(C2Nc3ccccc3C(=O)N2c2ccccc2OC)ccc1O", "note": "(stereo not drawn)", "Potency": "inconclusive: 20.6 µM [falling, partial curve]"}
{"smiles": "C=C(C)C1CC=C(C)/C(=N/NC(=O)c2cccs2)C1", "note": "(stereo not drawn)", "activity change, negative = inhibition": "inconclusive: 6.11%"}
{"smiles": "CCOC(=O)c1cc(C#N)c(N2CCNCC2)nc1C(F)(F)F", "activity change, negative = inhibition": "inactive"}
{"smiles": "CCOc1ccccc1CN1CCCC(C(=O)c2ccc(OC)c(OC)c2)C1", "note": "(stereo not drawn)", "activity change, negative = inhibition": "inactive"}
{"smiles": "COc1ccc(CCNC(=O)c2cc3c(=O)n4ccccc4nc3n(CC3CCCO3)c2=N)cc1OC", "note": "(stereo not drawn)", "activity change, negative = inhibition": "inactive"}
{"smiles": "Cc1nn(CC(=O)NCc2ccc(-n3cccn3)cc2)c(C)c1[N+](=O)[O-]", "activity change, negative = inhibition": "inactive"}
{"smiles": "COc1ccc(-c2nc(SCC(=O)Nc3c(F)cccc3F)n[nH]2)cc1", "Potency": "inconclusive: 20.6 µM [falling, partial curve, poor fit]"}
{"smiles": "CCN1CCN(C(=O)c2ccc(Cl)c(S(=O)(=O)N3CCCCC3)c2)CC1", "activity change, negative = inhibition": "inactive"}
{"smiles": "Cc1cccc(C)c1NC(=O)NCCCN1CCN(c2ccccc2)CC1", "activity change, negative = inhibition": "inactive"}
{"smiles": "CCN(CC)C(=O)Cn1nc(-c2ccc(Cl)cc2)c2ccccc2c1=O", "activity change, negative = inhibition": "inconclusive: -0.346%"}
{"smiles": "Cc1oc(-c2ccc(Cl)cc2)cc1C(=O)O", "activity change, negative = inhibition": "inconclusive: 18.9%"}
{"smiles": "COC(=O)CCc1c(C)nc(N)[nH]c1=O", "Potency": "inconclusive: 6.51 µM [falling, single point]"}
{"smiles": "Clc1ccc(-c2csc(-c3ccno3)n2)cc1", "activity change, negative = inhibition": "inconclusive: 9.9%"}
{"smiles": "CCOc1ccccc1OCC(=O)OC(C)C(=O)Nc1ncc(Cl)cc1Cl", "note": "(stereo not drawn)", "activity change, negative = inhibition": "inconclusive: 6.82%"}
{"smiles": "CCOC(=O)Cn1cc(C(=O)c2cccs2)c2ccccc21", "activity change, negative = inhibition": "inactive"}
{"smiles": "CC(=O)Nc1c(C(=O)N2CCOCC2)sc2nc3c(cc12)COC(C)(C)C3", "activity change, negative = inhibition": "inactive"}
{"smiles": "CCn1c(NN)nc2sc3c(c2c1=O)CCC3", "activity change, negative = inhibition": "inconclusive: 17.9%"}
{"smiles": "CN(C(=O)COC(=O)c1cc2c(s1)CCCCC2)C1CCS(=O)(=O)C1", "note": "(stereo not drawn)", "Potency": "inconclusive: 35.5 µM [falling, partial curve, poor fit]"}
{"smiles": "COc1ccc(Nc2nc3ccccc3n2C)cc1", "activity change, negative = inhibition": "inactive"}
{"smiles": "CNS(=O)(=O)c1cccc(C(=O)OCCCC(=O)c2ccccc2)c1", "activity change, negative = inhibition": "inactive"}
{"smiles": "O=C(CN(Cc1ccccc1)C(=O)c1cc2c(s1)CCC2)NCc1cccs1", "activity change, negative = inhibition": "inconclusive: 13.3%"}
{"smiles": "Nc1ccn(Cc2ccccc2F)n1", "activity change, negative = inhibition": "inactive"}
{"smiles": "O=C(NNc1ccc([N+](=O)[O-])cc1)c1ccccc1Cl", "activity change, negative = inhibition": "inactive"}
{"smiles": "Cc1cc(=O)oc2cc(OC(C)C(=O)NCC3CCCO3)ccc12", "note": "(stereo not drawn)", "activity change, negative = inhibition": "inconclusive: -0.0498%"}
{"smiles": "Cc1cc(/C=C(\\C#N)C(=O)NCc2ccco2)c(C)n1-c1cccnc1", "activity change, negative = inhibition": "inconclusive: -26.3%"}
{"smiles": "CC/C(=N/NC(=O)c1ccc(Br)cc1)c1ccc(OCCN2CCOCC2)cc1", "activity change, negative = inhibition": "inconclusive: -18.2%"}
{"smiles": "O=C(c1cccc(-n2cccc2)c1)N1CCN(S(=O)(=O)c2ccccc2Br)CC1", "activity change, negative = inhibition": "inconclusive: -9.77%"}
{"smiles": "COc1ccccc1C1=NN(C2=NN=C(N)Cc3ncnn32)C(O)(C(F)(F)F)C1", "note": "(stereo not drawn)", "activity change, negative = inhibition": "inactive"}
{"smiles": "O=C(Nc1ccc(N2CCCC2)cc1)c1cccc(Cl)c1", "Potency": "inconclusive: 22.4 µM [falling, partial curve]"}
{"smiles": "CCCCCCCCCCC(=O)NNC(=O)c1c(O)c2ccccc2n(CC)c1=O", "activity change, negative = inhibition": "inactive"}
{"smiles": "CC(=O)C(C(C)=O)C1(O)C(=O)c2ccccc2C1=O", "activity change, negative = inhibition": "inconclusive: -17.6%"}
{"smiles": "CC1=C(/C=C/C(C)=C/C=C/C(C)=C/C(=O)O)C(C)(C)CCC1", "Potency": "inconclusive: 35.5 µM [cytotoxic, single point]"}
{"smiles": "CCOC(=O)C1=C(N)Oc2ccc3ccccc3c2C1c1cccnc1", "note": "(stereo not drawn)", "Potency": "inconclusive: 18.4 µM [falling, partial curve]"}
{"smiles": "Cc1ccc(S(=O)(=O)N2CCN(C(=O)COC(=O)CCOc3ccccc3)CC2)c(C)c1", "activity change, negative = inhibition": "inactive"}
{"smiles": "O=C(NCc1ccccn1)C1CCN(S(=O)(=O)N2CCCC2)CC1", "activity change, negative = inhibition": "inconclusive: 18.1%"}
{"smiles": "O=C(c1ccco1)N1CCN(Cc2cn[nH]c2-c2ccc(F)cc2F)CC1", "activity change, negative = inhibition": "inconclusive: 9.02%"}
{"smiles": "O=C(NC1CCCCCC1)C1CCN(S(=O)(=O)c2ccccc2)CC1", "activity change, negative = inhibition": "inconclusive: 6.99%"}
{"smiles": "CN(CC(=O)Nc1cccc2ccccc12)c1ccc(S(=O)(=O)N2CCOCC2)cn1", "activity change, negative = inhibition": "inactive"}
{"smiles": "Cc1c(/C(O)=C2\\C(=O)C(=O)N(CCCN(C)C)C2c2ccncc2)cnn1-c1ccccc1", "note": "(stereo not drawn)", "activity change, negative = inhibition": "inconclusive: 8.98%"}
{"smiles": "N#Cc1c([N+](=O)[O-])cc([N+](=O)[O-])cc1S(=O)(=O)Cc1ccccc1", "activity change, negative = inhibition": "inconclusive: 17.8%"}
{"smiles": "CCC1CCCCN1CCCNC(=O)c1cn(CC)c2ccc(S(=O)(=O)N(C)C3CCCCC3)cc2c1=O", "note": "(stereo not drawn)", "activity change, negative = inhibition": "inactive"}
{"smiles": "Cc1ccc(NC(=O)Cn2c(=O)n(Cc3ccco3)c(=N)c3c4c(sc32)COC(C)(C)C4)cc1", "activity change, negative = inhibition": "inconclusive: 3.66%"}
{"smiles": "Cc1ccccc1OCC(=O)NCC(=O)N/N=C/C=C/c1ccccc1", "activity change, negative = inhibition": "inconclusive: 16.6%"}
{"smiles": "Cc1cccc(N2CCN(S(=O)(=O)c3ccc4c(c3)C(C)(C)C(=O)N4C)CC2)c1C", "activity change, negative = inhibition": "inconclusive: 24.3%"}
{"smiles": "COC(=O)c1ccc(/C=C(\\C#N)c2nc3ccccc3s2)cc1", "Potency": "inconclusive: 20 µM [falling, partial curve, poor fit]"}
{"smiles": "CN(C)CCCNc1cc(-c2ccccc2)nc2cc(-c3cccc(F)c3)nn12", "activity change, negative = inhibition": "inconclusive: -11.4%"}
{"smiles": "COc1ccc(CNC(=O)C2=CC(c3ccc(C)cc3)=NS(=O)(=O)N2C)cc1", "activity change, negative = inhibition": "inactive"}
{"smiles": "CCCCC(=O)NC(c1ccc(Cl)cc1Cl)c1ccc2cccnc2c1O", "note": "(stereo not drawn)", "activity change, negative = inhibition": "inconclusive: -1.06%"}
{"smiles": "Cc1ccc(S(=O)(=O)NCC2CCC(C(=O)NCc3cccs3)CC2)cc1", "note": "(stereo not drawn)", "activity change, negative = inhibition": "inconclusive: -1.73%"}
{"smiles": "Nc1nnnn1CC(=O)N/N=C/c1cccs1", "activity change, negative = inhibition": "inactive"}
{"smiles": "CCOC(=O)c1[nH]c(C)c(C(=O)N2CCc3c([nH]c4ccccc34)C2c2ccccn2)c1C", "note": "(stereo not drawn)", "Potency": "inconclusive: 7.08 µM [falling, full curve, poor fit]"}
{"smiles": "Cc1nc2oc3c(NCC4CCCO4)ncnc3c2c2c1COC(C)(C)C2", "note": "(stereo not drawn)", "activity change, negative = inhibition": "inconclusive: 12.8%"}
{"smiles": "COc1cc(/C=C(\\C#N)c2nc3ccccc3[nH]2)ccc1O", "activity change, negative = inhibition": "inconclusive: 14.1%"}
{"smiles": "Cc1cc2c(cc1S(=O)(=O)NCc1ccccc1)OCC(=O)N2", "Potency": "inconclusive: 12.6 µM [falling, partial curve, poor fit]"}
{"smiles": "Cc1ccc(NC(=O)c2ccc(COc3ccccc3Cl)o2)cc1", "activity change, negative = inhibition": "inactive"}
{"smiles": "Cc1csc(NC(=O)CCCc2cccs2)n1", "activity change, negative = inhibition": "inconclusive: 0.0206%"}
{"smiles": "NS(=O)(=O)c1ccc(NC(=S)Nc2ccc(S(=O)(=O)N3CCCC3)cc2)cc1", "activity change, negative = inhibition": "inactive"}
{"smiles": "Cc1onc(-c2ccccc2)c1C(=O)N/N=C/c1ccc(O)c([N+](=O)[O-])c1", "activity change, negative = inhibition": "inconclusive: -0.832%"}
{"smiles": "CCOC(=O)c1cccc(NC(=S)NC(=O)c2cccnc2)c1", "Potency": "inconclusive: 22.4 µM [falling, single point]"}
{"smiles": "O=C1/C(=C/c2ccc(N3CCCC3)cc2)NC(=S)N1C1CC1", "activity change, negative = inhibition": "inactive"}
{"smiles": "CCSc1nnc(NC(=O)c2nc(S(=O)(=O)Cc3ccc(F)cc3)ncc2Cl)s1", "activity change, negative = inhibition": "inconclusive: 16.5%"}
{"smiles": "CCN1C(=O)[C@H]2[C@@H](c3ccc(-c4cccc(Cl)c4)c(OC)c3)N3CCC[C@@]3(C(=O)OC)[C@H]2C1=O", "activity change, negative = inhibition": "inactive"}
{"smiles": "O=C(c1ccc(Cl)cc1)c1c[nH]c(C(=O)C(Cl)(Cl)Cl)c1", "Potency": "inconclusive: 23.1 µM [falling, partial curve]"}
{"smiles": "COc1cccc2cc(C(=O)C3=C(O)C(=O)N(Cc4ccco4)C3c3cccnc3)oc12", "note": "(stereo not drawn)", "Potency": "inconclusive: 6.51 µM [rising, single point]"}
{"smiles": "CCOc1ccccc1N1CCN(C/C=C/c2ccc(N(C)C)cc2)CC1", "Potency": "inconclusive: 29.1 µM [falling, single point]"}
{"smiles": "COc1cc(C(=O)OCc2cc(=O)oc3c(C)c(C)ccc23)ccc1OC(F)F", "activity change, negative = inhibition": "inactive"}
{"smiles": "COc1ccc(Nc2nc(Nc3ccc(OC)cc3OC)nc(N3CCN(C)CC3)n2)c(OC)c1", "activity change, negative = inhibition": "inactive"}
{"smiles": "CC(C)(C)NC(=O)c1ccc2c(c1)N(CC(=O)N1CCCC1)C(=O)C(C)(C)O2", "activity change, negative = inhibition": "inactive"}
{"smiles": "CN(CC(=O)NCc1ccco1)CC(=O)Nc1ccc(F)c(F)c1F", "activity change, negative = inhibition": "inconclusive: -12%"}
{"smiles": "COc1cc2cnc(C3=CCCCC3)cc2cc1OC", "activity change, negative = inhibition": "inconclusive: -1.64%"}
{"smiles": "Cn1c(=O)n(C)c2cc(/C=N/NC(N)=S)ccc21", "activity change, negative = inhibition": "inconclusive: 2.18%"}
{"smiles": "Cc1occc(=O)c1OCc1c(Cl)cccc1Cl", "activity change, negative = inhibition": "inconclusive: 4.34%"}
{"smiles": "Cn1nnc2cc(NC(=O)N3CCN(c4ccccn4)CC3)ccc21", "activity change, negative = inhibition": "inconclusive: 4.75%"}
{"smiles": "O=C(CC1C[C@H](C(=O)N2CCCCC2)[C@@]2(CCc3ccccc3)c3[nH]c4ccccc4c3CCN2C1=O)NCCCn1ccnc1", "note": "(stereo partly drawn)", "activity change, negative = inhibition": "inconclusive: -4.2%"}
{"smiles": "Cc1cccc(OCc2n[nH]c(=S)o2)c1", "activity change, negative = inhibition": "inconclusive: -1.48%"}
{"smiles": "O=C1C=C(c2ccccc2)C[C@H](c2cccs2)[C@H]1n1nnc([N+](=O)[O-])n1", "activity change, negative = inhibition": "inconclusive: 8.32%"}
